Source: PubChem BioAssay AID2685 (National Center for Advancing Translational Sciences (NCATS), 2010)
The list shows a part of the results. The main result of the screen is listed elsewhere. These columns were measured beside it and carry no call. The list favours compounds with an active or inconclusive main result. Words in brackets tell the shape of the fitted curve; partial curves, single points and poor fits give uncertain potencies.

Assay: qHTS Assay for Lipid Storage Modulators in Drosophila S3 Cells;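 for cell number change: cells counted by Cell Tracker Red CMTPX staining in the red channel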
Details: BODIPY lipid droplet fluorescence, 18-24 h; for cell number change: measured here: cell count max response, cells fed with added oleic acid
Summary of the method: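 Drosophila S3 cells loaded with oleic acid (400 uM, as added) and compounds at several concentrations; lipid droplets imaged by 488-nm laser-scanning cytometry, 500–530 nm intensity and object ratio to cell channel. Percent activity normalized to 20 uM Triacsin C.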

[1] = measured here: cell number channel AC50, cells fed with added oleic acid
[2] = measured here: lipid fluorescence (Fed channel) AC50, cells fed with added oleic acid

Row | Compound | cell number change | AC50 [1] | AC50 [2]
1 | O=C(ONC1=NCCCCC1)c1ccc([N+](=O)[O-])cc1 | -87.9% | 18.4 µM [falling, partial curve] | 
2 | CC(C)SCc1cc(N2CCCC2)nc(-c2ccccc2)n1 | 24% | 0.00461 µM [falling, full curve, poor fit] | 
3 | CN(C)c1ccc(NC(=S)NCC2CCCO2)cc1 (stereo not given) | 12.2% |  | 29.1 µM [rising, single point]
4 | Fc1ccc2c(c1)C1OCCCC1C(c1ccccc1)N2 (stereo not given) |  | 0.13 µM [rising, partial curve, poor fit] | 29.1 µM [rising, partial curve, poor fit]
5 | CC(OC(=O)CNC(=O)c1ccc2c(c1)OCO2)C(=O)NCCC1=CCCCC1 (stereo not given) | -9.58% |  | 
6 | Clc1ccc(/C=N/NC2=Nc3cccc4cccc2c34)cc1 | -7.73% |  | 18.4 µM [falling, single point]
7 | COc1ccc(C2CC(c3ccccc3)=NN2c2ccc(C(N)=O)cc2)cc1 (stereo not given) | -61.4% |  | 8.2 µM [falling, partial curve]
8 | CC1=CC(c2ccccc2)=Nc2ccc(C)cc2N1 | -21.8% |  | 29.1 µM [rising, single point]
9 | COc1cc(NC(=O)C(Cc2ccccc2)n2cccc2)cc(OC)c1 (stereo not given) | 38.7% | 8.2 µM [rising, partial curve] | 
10 | C=C(C)CSc1nc2sc3c(c2c(=O)n1-c1ccc(OC)cc1)CCN(C)C3 | -4.23% |  | 
11 | CCCCNc1nnc(CCn2nc(C)c(Br)c2C)s1 | -7.69% |  | 0.731 µM [falling, single point]
12 | CCOC(=O)N1CCN(C(=O)c2ccc3c(c2)N(Cc2ccc(C)cc2)CCS3)CC1 | 22% |  | 
13 | CN(CC(=O)NNC(=O)CCNS(=O)(=O)c1ccccc1)S(=O)(=O)c1ccc(Cl)cc1 | -59.5% | 25.9 µM [falling, single point] | 
14 | Cc1cccc(C)c1NC(=O)CCCSc1nnc(-c2ccco2)o1 | -8.78% |  | 0.00731 µM [rising, full curve, poor fit]
15 | COc1ccc(OCC(O)CNS(=O)(=O)c2ccc(NC(C)=O)cc2)cc1 (stereo not given) | 40.3% | 29.1 µM [rising, single point] | 
16 | CCc1nc(N2CCCC(C)C2)c2oc3ccccc3c2n1 (stereo not given) | -49.9% | 13 µM [falling, partial curve] | 16.4 µM [falling, single point]
17 | Cc1ccc(S(=O)(=O)CCc2nnc(NC(=O)CCl)s2)cc1C | -45% |  | 29.1 µM [falling, single point]
18 | COc1ccc(C(C(=O)NC2CCCC2)N(CCO)C(=O)Cn2nnc(-c3ccc(C)o3)n2)cc1 (stereo not given) | 10.5% |  | 3.16 µM [falling, single point]
19 | Cc1cc(C)nc(/N=C(/NC(=O)Nc2ccc(Cl)c(Cl)c2)Nc2ccccc2)n1 | 18.3% |  | 9.2 µM [rising, partial curve, poor fit]
20 | C=CCSc1nnc(NC(=O)c2cccc(S(=O)(=O)N(C)c3ccccc3)c2)s1 | 13.6% |  | 

Row | Compound | cell number change | AC50 [1] | AC50 [2]
21 | COCCN(C(=O)CSc1nnc(-c2cccc(OC)c2)n1C)c1c(N)n(Cc2ccccc2)c(=O)[nH]c1=O | 16% |  | 14.6 µM [rising, single point]
22 | Cc1ccccc1-c1nnn(Cc2cccc(S(=O)(=O)N3CCOCC3)c2)n1 | 39.5% | 18.4 µM [rising, partial curve, poor fit] | 20.6 µM [rising, single point]
23 | C=CCNc1nc2ccccc2c(=O)[nH]1 | -20.8% | 0.103 µM [falling, full curve, poor fit] | 
24 | O=C(Nc1ccccc1F)NC1CCN(Cc2nnnn2Cc2ccc(F)cc2)CC1 | 19.2% |  | 18.4 µM [rising, single point]
25 | O=C(N/N=C/c1ccccc1O)c1cc(=O)[nH]c2ccccc12 | -12.1% |  | 18.4 µM [falling, partial curve]
26 | Cc1cc(C)n2nc(C(=O)N/N=C/c3c4ccccc4cc4ccccc34)nc2n1 | -49.1% | 9.2 µM [falling, partial curve] | 6.51 µM [falling, partial curve]
27 | COCCn1c(SCC(=O)NC(=O)NC(C)(C)C)nc2ccccc21 |  | 0.58 µM [rising, full curve] | 
28 | Nc1ncc([N+](=O)[O-])c(N2CCCCCC2)n1 | 1.68% |  | 
29 | Cc1ccc(S(=O)(=O)N2CCSC2c2ccco2)cc1 (stereo not given) | 0.48% |  | 0.00517 µM [falling, full curve, poor fit]
30 | O=c1c(Cl)c(N/N=C/c2ccc(Br)cc2)cnn1-c1ccccc1 | -45.6% | 5.8 µM [falling, partial curve, poor fit] | 
31 | O=C(CSc1nnc(-c2ccncc2)o1)NCc1ccc(Cl)cc1 | 11.7% |  | 0.92 µM [rising, full curve, poor fit]
32 | Cc1cccc(COc2ccccc2C(=O)OCC(=O)N(C)c2c(N)n(Cc3ccccc3)c(=O)[nH]c2=O)c1 | -55.7% | 14.6 µM [falling, partial curve] | 6.51 µM [falling, full curve, poor fit]
33 | CCO[C@@H]1OC(C(=O)NCc2ccccc2)=C[C@H](C)[C@H]1CCCO | -11.7% |  | 13 µM [falling, partial curve, poor fit]
34 | COc1cc(/C=N/NC(=O)CCc2ccccc2)ccc1O |  |  | 23.1 µM [rising, single point]
35 | CC(C)(C)C1CCc2c(sc(NC(=O)CSc3nnc(-c4ccccc4)o3)c2C#N)C1 (stereo not given) |  |  | 3.26 µM [falling, partial curve]
36 | CN(C)c1oc(-c2ccccc2Cl)nc1P(=O)(c1ccccc1)c1ccccc1 | -1.06% |  | 
37 | COc1ccc(C2C(C(=O)c3ccco3)=C(O)C(=O)N2CCN2CCOCC2)c(OC)c1 (stereo not given) | 55.1% | 11.6 µM [rising, partial curve, poor fit] | 
38 | CCOCC(=O)Nc1ccc(S(=O)(=O)N2CCOCC2)cc1 | -3.2% |  | 29.1 µM [falling, partial curve]
39 | CCNC(=O)CC1SC(=Nc2cccc3ccccc23)N(C)C1=O (stereo not given) | -5.98% | 3.26 µM [falling, single point] | 3.26 µM [falling, single point]
40 | COc1ccc(C)cc1NC(=O)C1CCCN1C(=O)OCc1ccccc1 (stereo not given) | 56.5% | 29.1 µM [rising, single point] | 3.66 µM [rising, full curve]

Compounds above with a thiophene ring, fused or not:
Row | Compound | cell number change | AC50 [1] | AC50 [2]
10 | C=C(C)CSc1nc2sc3c(c2c(=O)n1-c1ccc(OC)cc1)CCN(C)C3 | -4.23% |  | 
35 | CC(C)(C)C1CCc2c(sc(NC(=O)CSc3nnc(-c4ccccc4)o3)c2C#N)C1 (stereo not given) |  |  | 3.26 µM [falling, partial curve]

More records.

Row | Compound | cell number change | AC50 [1] | AC50 [2]
41 | COc1cccc(C(=O)Nc2ccccc2)c1 | 10.7% |  | 25.9 µM [falling, single point]
42 | Cc1cc(C)nc(NC(=O)c2cc(-c3ccc4c(c3)OCO4)nc3ccccc23)c1 | -23.5% |  | 0.58 µM [rising, single point]
43 | N#C/C(=C\c1cn(CC(=O)N2CCCC2)c2ccccc12)C(=O)NCc1ccc2c(c1)OCO2 | 1.71% |  | 
44 | Cc1cs/c(=N\N=C2CCCCC2)n1Cc1ccco1 | 71.4% | 13 µM [rising, partial curve] | 7.31 µM [rising, partial curve]
45 | COc1ccc(CN2CCS(=O)(=O)CC2)cc1OC | -20.2% |  | 
46 | CCCn1c(SCC(=O)NCC(=O)Nc2ccc(F)c(F)c2F)nc2ccccc2c1=O | 21% |  | 1.46 µM [falling, partial curve, poor fit]
47 | CCOc1ccc(N(CC(=O)N2CCN(c3ccccc3F)CC2)S(=O)(=O)c2c(C)noc2C)cc1 | 14.2% |  | 29.1 µM [rising, partial curve]
48 | Cc1ccc(S(=O)(=O)c2nc(-c3cccs3)oc2NCc2cccnc2)cc1 | -20.3% |  | 
49 | CCOc1ccc(CCNC(=O)c2cccc(S(=O)(=O)N3CC(C)OC(C)C3)c2)cc1OCC (stereo not given) | -30.5% | 16.4 µM [falling, single point] | 29.1 µM [falling, single point]
50 | CC(Sc1n[nH]c(-c2ccccc2)n1)C(=O)c1c(N)n(C)c(=O)n(C)c1=O (stereo not given) | 41% | 7.31 µM [rising, partial curve, poor fit] | 
51 | Cc1c(C)c2ccc(OCC(=O)N3CCC(C(=O)O)CC3)cc2oc1=O | 31.7% | 25.9 µM [rising, single point] | 29.1 µM [rising, single point]
52 | CC(=O)Nc1ccc(S(=O)(=O)N2CCC(NC(=O)C(Cc3ccccc3F)NC(C)=O)CC2)cc1 (stereo not given) | 5.24% |  | 32.6 µM [rising, single point]
53 | S=c1[nH]c(-c2ccccc2)cn1/N=C/c1ccccc1Br | 53.4% | 16.4 µM [rising, single point] | 
54 | C=CCn1cc(CN2CCC(C(=O)Nc3cccc(-c4cccc(Cl)c4)c3)CC2)c(C)n1 |  |  | 6.51 µM [rising, single point]
55 | CC1CCN(C(=O)COc2ccccc2F)CC1 | 3.23% |  | 6.51 µM [rising, single point]
56 | COc1ccc(C(=O)N2CCNC(=O)C2CC(=O)Nc2ccc(C)cc2)cc1 (stereo not given) | 2.26% | 1.3 µM [rising, full curve, poor fit] | 0.731 µM [rising, full curve]
57 | CCOc1cc(C(=O)N2CCN(c3ccccc3)CC2)cc(OCC)c1OCC | 83.5% | 14.6 µM [rising, partial curve] | 6.51 µM [rising, single point]
58 | COc1ccc(C2=Nn3c([n+](C)c4ccccc43)SC2)cc1 | -53.5% | 16.4 µM [falling, single point] | 8.2 µM [falling, partial curve]
